# Assay results reported in patent US20180009859A1, “PHARMACOLOGICAL MODULATORS OF GABAA RECEPTORS AND THEIR USE” (priority 2015, published 2018).
# Target: GABAA receptors in SPMs
# Design: species or system rat
# Conditions: read-out: EC50 for reducing ^125I-MmTX2 binding to SPMs
smiles,measurement,value
"NCCCC(=O)O [GABA, γ-aminobutyric acid]",EC50,2700 nM
